In publication PMC8506970:
Numbering of substitutions follows the chain as printed. No constants are given. Whether binding was seen depends on the method and setting. Some binding calls cover weakened binding; strength is not graded here.

By UniProt entry, the sequences of proteins in these tests, tags left out.
UniProt P0A6Y8: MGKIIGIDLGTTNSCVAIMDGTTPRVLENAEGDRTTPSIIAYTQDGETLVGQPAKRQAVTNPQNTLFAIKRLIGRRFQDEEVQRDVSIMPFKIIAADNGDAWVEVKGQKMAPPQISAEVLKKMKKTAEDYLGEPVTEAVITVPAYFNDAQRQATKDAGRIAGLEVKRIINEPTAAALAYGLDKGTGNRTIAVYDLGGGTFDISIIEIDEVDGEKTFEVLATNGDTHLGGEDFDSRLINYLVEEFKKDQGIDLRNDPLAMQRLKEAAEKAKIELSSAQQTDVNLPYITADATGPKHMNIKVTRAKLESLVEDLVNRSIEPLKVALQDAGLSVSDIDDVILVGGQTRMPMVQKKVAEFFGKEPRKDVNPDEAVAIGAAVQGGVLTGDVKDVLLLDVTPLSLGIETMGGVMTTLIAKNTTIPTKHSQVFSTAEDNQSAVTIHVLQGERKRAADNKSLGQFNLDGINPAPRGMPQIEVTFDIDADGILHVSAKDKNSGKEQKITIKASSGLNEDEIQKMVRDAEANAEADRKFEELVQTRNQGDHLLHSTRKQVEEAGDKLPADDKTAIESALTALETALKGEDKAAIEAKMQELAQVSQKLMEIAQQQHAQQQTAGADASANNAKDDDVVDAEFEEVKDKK
UniProt P0A6F5: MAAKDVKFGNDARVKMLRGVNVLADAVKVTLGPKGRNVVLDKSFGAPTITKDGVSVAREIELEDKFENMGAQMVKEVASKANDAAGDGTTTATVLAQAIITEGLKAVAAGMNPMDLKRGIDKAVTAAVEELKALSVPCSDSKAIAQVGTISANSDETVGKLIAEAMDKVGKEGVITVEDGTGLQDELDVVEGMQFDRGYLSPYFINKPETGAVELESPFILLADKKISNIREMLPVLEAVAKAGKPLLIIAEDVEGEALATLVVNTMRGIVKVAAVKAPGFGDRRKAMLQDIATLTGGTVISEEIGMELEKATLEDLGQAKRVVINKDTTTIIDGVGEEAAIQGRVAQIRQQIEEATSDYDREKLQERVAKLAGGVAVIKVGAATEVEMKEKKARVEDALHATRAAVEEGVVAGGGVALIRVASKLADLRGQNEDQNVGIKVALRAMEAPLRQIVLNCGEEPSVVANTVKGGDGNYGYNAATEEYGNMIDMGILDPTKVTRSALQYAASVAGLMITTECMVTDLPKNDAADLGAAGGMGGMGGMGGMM

Columns and labels:
Assay in all cases: co-purification by affinity chromatography (StrepII tag), SDS-PAGE; proteins expressed in E. coli ArcticExpress (DE3) at 10 °C, MgCl2 added to the culture; StrepII affinity chromatography of the lysate; SDS-PAGE of the eluate
[1] = target: T1, mATGL288 (F17A)-Str (mouse) (UniProt Q8BJ56)
T1 sequence: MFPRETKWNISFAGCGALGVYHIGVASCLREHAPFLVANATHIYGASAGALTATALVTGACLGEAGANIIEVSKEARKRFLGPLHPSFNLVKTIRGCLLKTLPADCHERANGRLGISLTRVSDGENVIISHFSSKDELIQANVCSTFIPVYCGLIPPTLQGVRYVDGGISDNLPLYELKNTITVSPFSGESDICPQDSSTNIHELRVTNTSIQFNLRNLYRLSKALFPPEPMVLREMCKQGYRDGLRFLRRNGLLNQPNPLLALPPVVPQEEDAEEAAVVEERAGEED

[2] = target: T2, mATGL288 (S47A)-Str (mouse) (UniProt Q8BJ56)
T2 sequence: T1 sequence with A17F, S47A

[3] = target: T3, mATGL288-Str (expression product of pST44-SMT3-TEV-mATGL288-STR) (mouse) (UniProt Q8BJ56)
T3 sequence: T1 sequence with A17F

Measured: binding

DnaK (from UniProt P0A6Y8 1-638)
binds: all assays above

GroEL (from UniProt P0A6F5 1-548)
binds: all assays above
